Here are results for 4 sequences from paper PMC10688271, “Molecular details of the CPSF73-CPSF100 C-terminal heterodimer and interaction with Symplekin”.

No signal at the amounts used counts as a negative. At least one verdict was read from the data and is not stated in words by the source. Where a protein sequence is shown, tags need not be part of it.

For the data set, the target named is T1, ec73-CTD3 (Encephalitozoon cuniculi) (UniProt Q8SUE4).
T1 sequence (looked up): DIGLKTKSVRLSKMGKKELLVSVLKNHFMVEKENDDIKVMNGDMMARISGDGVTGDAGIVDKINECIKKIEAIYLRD
Kind of data set: EMSA. Conditions: 50 uM protein, 500 nM nucleic acid, EMSA: 20 mM Tris pH 7.5, 150 mM potassium acetate, 1 mM EDTA, 10% glycerol, 30 min incubation, 10% Tris-glycine gel, recombinant protein, residues 567-643, protein details: His6 tag removed by TEV. A general note: A gel shift assay detects complexes by their altered migration in electrophoresis.

The mark [1] stands for this setting: label: 3' Cy3 on forward strand.

Take AGGGUCUCCAUUUUGAAGCAUGC [ssRNA-Cy3]: the binding result (label: 3' Cy3) is “no binding”. For “AGGGTCTCCATTTTGAAGCATGC (double strand) [dsDNA-Cy3]”, the binding result under setting [1] was “no binding”. As to “AGGGUCUCCAUUUUGAAGCAUGC / GCAUGCUUCAAAAUGGAGACCCU [dsRNA-Cy3]”, the binding result under setting [1] is “no binding”. As to AGGGTCTCCATTTTGAAGCATGC [ssDNA-Cy3], the binding result (label: 3' Cy3, single-stranded DNA) is listed as “no binding”.
